The assay has as its target Histidine-tagged human CD40 protein (hCD40-His) (human) (UniProt P25942). In words: SPR (Biacore T200), antibody captured on Protein A chip, hCD40-His injected at 0.78125, 3.125, 12.5, 50, 200, 800nM.

Amino acid sequences for entries named in this document (tags omitted). A change or cut given only in a name is not applied to a line headed by its entry.
UniProt P25942: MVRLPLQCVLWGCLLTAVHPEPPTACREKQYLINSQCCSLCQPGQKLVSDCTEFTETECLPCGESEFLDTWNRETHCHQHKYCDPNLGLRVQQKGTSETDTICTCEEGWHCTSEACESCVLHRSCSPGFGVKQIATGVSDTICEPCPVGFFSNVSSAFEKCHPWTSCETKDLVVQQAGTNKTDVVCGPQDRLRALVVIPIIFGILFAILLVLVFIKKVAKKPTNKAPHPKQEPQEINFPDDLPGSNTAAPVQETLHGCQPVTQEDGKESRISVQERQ

Results are given in words; binding and its absence hold for the method and conditions named. Some binding calls cover weakened binding; strength is not graded here.

B1: 6A7-mHvKv-IgG4 (antibody, V domains shown)
VH: QVQLQQPGAELVKPGASVKLSCKASGYTFISYYIYWVKQRPGQGLEWIGGINPRNGGTNFNEKFKSKATLTVDKSSSTAYMQLSSLTSEDSAVYYCTRHGNGVYWGQGTTLTVSS
VL: DVVMTQTPLSLPVSLGDQASISCRSSQSLLHSNGNTYLHWYLQKPGQSPNHLIYQVSNRFSGVPDRFSGSGSGTDFTLKISRVEAEDLGVYFCSQTTHVPWTFGGGTKLEIK
Regarding B1, the binding entry is “binds”.

B2: 6A7-H1K1-IgG4 (antibody, V domains shown)
VH: QVQLVQSGAEVKKPGASVKVSCKASGYTFISYYIYWVRQAPGQGLEWMGGINPRNGGTNFNEKFKSRVTLTVDTSISTAYMELSRLRSEDTAVYYCARHGNGVYWGQGTTVTVSS
VL: DVVMTQSPLSLPVTLGQPASISCRSSQSLLHSNGNTYLHWFQQRPGQSPRHLIYQVSNRFSGVPDRFSGSGSGTDFTLKISRVEAEDVGVYYCSQTTHVPWTFGGGTKVEIK
As for B2, the binding entry was “binds”.

The values above are taken from US20250034271A1.
